# According to the supplement of paper PMC5949888:
# Most values lie at the floor of the assay. Slopes are relative: functional sequences can read slightly below zero.
# System: Saccharomyces cerevisiae PS128 hsf1 delta, HSF1(1-493) fusion
# Experiment: growth estimate (transactivation domain function in HSF1 fusion, heat-shock survival) (a.u. (slope of normalised read count over time)); higher = stronger growth at 37°C, i.e. more transactivation activity
# Conditions: library: random library
row,Substance,growth estimate
1,VSLGVKLFNGKGCKWVQGTV,< -0.25
2,ILQRSNSRRLQTDKTRKVCF,< -0.25
3,RLCVRRSIPHRFSTETIMMA,< -0.25
4,DVAFDSSGKRSPLNS,< -0.25
5,GAFTSA,< -0.25
6,HDGRTKPDASGHRSVKKTGA,< -0.25
7,ALVEKKKGSLCHVCVPGV,< -0.25
8,RRS,< -0.25
9,KIRIHEYLSSPSSNGAESGC,< -0.25
10,QTNRGPAYAGPAP,< -0.25
11,YKAVHLEWEID,< -0.25
12,VGLC,< -0.25
13,AEVPS,< -0.25
14,NDTRVARVWVTIGESYVITV,< -0.25
15,GNGS,< -0.25
16,GLVRIG,< -0.25
17,VAFRG,< -0.25
18,YPAQPRSRR,< -0.25
19,LFFCQ,< -0.25
20,GRPTNV,< -0.25
21,RTRVLPQLWSCLFVA,< -0.25
22,SGTLLGRASTEARMRRNIQS,< -0.25
23,KSAPRMISSWA,< -0.25

# No new results follow: entries from further up.
row,Substance,growth estimate
1,VSLGVKLFNGKGCKWVQGTV,< -0.25
2,ILQRSNSRRLQTDKTRKVCF,< -0.25
3,RLCVRRSIPHRFSTETIMMA,< -0.25
4,DVAFDSSGKRSPLNS,< -0.25
5,GAFTSA,< -0.25
6,HDGRTKPDASGHRSVKKTGA,< -0.25

# Further entries follow:

row,Substance,growth estimate
1,KYCIVYSGRDSSSPFRLGET,< -0.25
2,MRTMLLEDLPSVLIHIARPS,< -0.25
3,FETLSVELGNLNGVTGATDG,< -0.25
4,RYDADFWGTRNMHHLGLF,< -0.25
5,SMPVCASLGGECSGLVVLGS,< -0.25
6,PYAQNLTPPSPVQGLRTIIS,< -0.25
7,SSWA,< -0.25
8,SRDRCEGASHQDKTCGNYV,< -0.25
9,LSLGFAFKDRGNR,< -0.25
10,NDESGGDLRLKDGVPLHIQR,< -0.25
11,RYLYGVGPNPRFFSMLPVDG,< -0.25
12,FMLQSQGKGKGRPGCNYIRL,< -0.25
13,RPVWFGYGIAMFRLSPVPQR,< -0.25
14,RDIEKI,< -0.25
15,LALGGGLT,< -0.25
16,LFRSERSEP,< -0.25
17,TQFCRLI,< -0.25
18,SQIYVSHWKCGRL,< -0.25
19,MSERPGVA,< -0.25
20,AYLPLFLRDTSQKHITCVID,< -0.25
21,ETIEFFCRTRNVHTVLRHLF,< -0.25
22,GPSTPAFTSVRIATSTCQLL,< -0.25
23,AGRRQTAWAAVHRLSAAQSA,< -0.25

row,Substance,growth estimate
1,PTEATYARLFHINTRSGWSL,1.4
2,LVRISCLS,< -0.25
3,VGTNYTIKGEAKCTRCPAAT,< -0.25
4,AHIVTETDTSVSVDWS,< -0.25
5,EERGRL,< -0.25
6,DRCFGKAFMF,< -0.25
7,AYLGDPFSNRTDN,< -0.25
8,AAVYN,-0.243
9,DLLIVSCSNRVFPV,< -0.25
10,YWGACLGDSVVERVFVR,< -0.25
11,ERYGALGRYAIGVDAGCGMN,< -0.25
12,FITAARPQGWSI,< -0.25
13,RKSASTVLSRRVRARMFTRF,< -0.25
14,PRTNVVPKPRNCLGADL,< -0.25
15,TTSITPASRITYPAAVCHCV,< -0.25
16,IAQSK,< -0.25
17,RRGLLFRRG,< -0.25
18,GRNSPTDRSIRWNELWSVCN,< -0.25
19,WKG,< -0.25
20,TTAL,< -0.25
21,CRGHGLVPVRWLCRRW,< -0.25
22,VVEFKYGDVVESSQVCISAD,< -0.25
23,DDGGSECTSIRCLYSTRVFV,< -0.25

row,Substance,growth estimate
1,SRVTKWDRLLVGPALVARGG,< -0.25
2,WMGV,< -0.25
3,TGVESVYEVF,< -0.25
4,RSRSKRRTTRMVLSELCQMA,< -0.25
5,TYQMPQLGPIVVPFRVHNSR,< -0.25
6,NSRIGGWRFLAKSPVTESSP,< -0.25
7,PRS,< -0.25
8,KTAFS,< -0.25
9,GLSGVVVSRLRGTPGESVCR,< -0.25
10,RTLTAAFRGHNRI,-0.231
11,LSTHLECLQCQGSPHPPDAP,< -0.25
12,AVRRY,< -0.25
13,TRFRFNMFRYQQFRTDTTGR,< -0.25
14,RNLIPLR,< -0.25
15,YDVIPNTYSTIQFPFGCRVF,< -0.25
16,RTTPGCYITMIKVRVGWFVC,< -0.25
17,DVSRSKIAPLADICSRGSWL,< -0.25
18,KVSPLSRSVRYPLGSGARKV,< -0.25
19,FSMQLV,< -0.25
20,LGELALLLWEIAV,< -0.25
21,GQTSFVSCRGSSRRSCYRSI,< -0.25
22,RGYTTTC,< -0.25
23,SRGAKPATRKIAQSATT,< -0.25

# Looked up one by one from the entries so far:
row,Substance,growth estimate
3,VGTNYTIKGEAKCTRCPAAT,< -0.25
12,FMLQSQGKGKGRPGCNYIRL,< -0.25
7,PRS,< -0.25
2,WMGV,< -0.25
18,YPAQPRSRR,< -0.25

# (cont.)

row,Substance,growth estimate
1,TTST,< -0.25
2,NENGFCRLSCKNNCCLQCIR,< -0.25
3,ESGVDSRGWSCNWRNSSS,-0.112
4,STVMSNLEVLLIHRYSRSRQ,< -0.25
5,VENRIQSQRVSP,< -0.25
6,CMVLFECELPSL,< -0.25
7,LQKLSSVGVYP,< -0.25
8,TCPSYIARSAMPA,< -0.25
9,AKLFTS,< -0.25
10,AIIGEHLWVYEIRTFL,< -0.25
11,LMRAVARERTRSEVSLTIWL,< -0.25
12,PGTFNILVCVSRQDAIASPS,< -0.25
13,WLPKGVPQRQRC,< -0.25
14,ASDIRGSGPECHQLLPFVAH,< -0.25
15,IGITKLNGRFGTSSTSDLRH,< -0.25
16,GTHELR,< -0.25
17,SMKRLFLLAPTANCIKHDGT,< -0.25
18,STRIHD,< -0.25
19,ILRGP,< -0.25
20,VFVYPSKLSGANNWQKL,< -0.25
21,LTISEVVAVTRAPNRSGCIR,< -0.25
22,MRCASRNHEYHIVMFVEAQG,< -0.25
23,GPAASRTDNSGVFGKRAVRL,< -0.25

row,Substance,growth estimate
1,CRLMFPLIPAGEVRELQRAS,< -0.25
2,YKDSHQASRSSVGVGWSGAF,< -0.25
3,YHRRPVSEPCQVGVT,< -0.25
4,RKYPYFTTSFRIRPK,< -0.25
5,QVTFARAGYPHKVICRLEHP,< -0.25
6,LYSYSGDGTLMLSLVGINIS,< -0.25
7,EQIKTKSCRTEGPVRGLLPE,< -0.25
8,GIAYACVFITAILSAVL,< -0.25
9,IPRRWECRSPRELCRMVVGR,< -0.25
10,RLGENVHGPSPQEPLLPLQG,< -0.25
11,RQCCRLCASKCTDQYADPAF,< -0.25
12,MLGRSKLSIHWANCGTCPTS,< -0.25
13,PSDSHRFAVVGQHAYNWSCG,< -0.25
14,GDIVTRRWP,< -0.25
15,SQSMLQIEVRRGPCRHLPSC,< -0.25
16,KVTPELSAVVAGPSDKALRL,< -0.25
17,TPAMRYTGIQKPDRSLVSNT,< -0.25
18,WSESRTGDILESPCH,< -0.25
19,APYANV,< -0.25
20,LKMRMLRDEEIV,< -0.25
21,RQPAVAPGKRPTSQHRVPPG,< -0.25
22,ILAWF,< -0.25
23,TDSSERTEWVPLIRSFMDR,< -0.25

row,Substance,growth estimate
1,VRPGCLKVRSGKLKPIIWAY,< -0.25
2,QCRRHALRPYHMDTHDPDGA,< -0.25
3,TATAGTFISPYMSAFRRVST,< -0.25
4,LEVNLGGLCAST,< -0.25
5,GIIRRVTLSGSVWHCGWESA,< -0.25
6,CTAGVR,< -0.25
7,AANPYRREAQRVHKLHSPLA,< -0.25
8,HQLGKPSLESTLECSAVNCR,< -0.25
9,SYVDFEVRWFTGPTNASLGR,< -0.25
10,PRVPYGS,< -0.25
11,KTI,< -0.25
12,VVTPEGMYGKDRSGWINLMK,< -0.25
13,TSRHLHRAIGICMAK,< -0.25
14,FEYICLL,< -0.25
15,HCQGHFDR,< -0.25
16,WSLLALVVPAAFS,< -0.25
17,TEGQCRAWT,< -0.25
18,RGLLVPREGVEGQW,< -0.25
19,IFVTVATAGSTGVRCQDGGR,< -0.25
20,FKV,< -0.25
